Assay results from PubChem BioAssay AID2685 (National Center for Advancing Translational Sciences (NCATS), 2010).
This is one part of the list. The main result of the screen is listed elsewhere. These columns were measured beside it and carry no call. Compounds called inactive in the main read-out are mostly missing here. Potencies come from curve fits of mixed quality, noted in brackets.

Assay: qHTS Assay for Lipid Storage Modulators in Drosophila S3 Cells;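 for cell number change: cells counted by Cell Tracker Red CMTPX staining in the red channel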
Details: BODIPY lipid droplet fluorescence, 18-24 h; for cell number change: measured here: cell count max response, cells fed with added oleic acid
Method in brief: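 Laser-scanning cytometry quantifies lipid droplet accumulation (500–530 nm total intensity; droplet/cell object ratio) in oleic acid-fed (400 uM added) Drosophila S3 cells treated with a concentration series. 20 uM Triacsin C defined 100% inhibition.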

[1] = measured here: cell number channel AC50, cells fed with added oleic acid
[2] = measured here: lipid fluorescence (Fed channel) AC50, cells fed with added oleic acid

Structure (SMILES) | AC50 [1] | AC50 [2] | cell number change [%]
CCCN1Cc2cccc(C(=O)NCc3cccs3)c2C1=O | 1.16 µM [rising, partial curve] | 2.06 µM [rising, partial curve, poor fit] | –
COc1ccc(C2C(C(=O)NCc3cccnc3)c3cc(OC)c(OC)cc3C(=O)N2C)cc1 (stereo unspecified) | – | – | 6.27
CCC(C)(C(=O)NC1CCCC1)N(C(=O)CC1NC(=O)NC1=O)c1ccc(C)cc1 (stereo unspecified) | 25.9 µM [falling, partial curve, poor fit] | 29.1 µM [falling, single point] | -70.7
CCc1cc(=O)oc2cc(C)c(CN3CCCC3)c(O)c12 | – | 6.51 µM [rising, single point] | 3.46
C=CCNC(=O)CN(c1cccc(Br)c1)S(C)(=O)=O | 6.51 µM [rising, single point] | – | –
Cc1ccc(NC(=O)Nc2cnccn2)cc1 | – | – | -18.8
O=C(CN1C(=O)c2ccccc2S1(=O)=O)NCCSCc1ccco1 | – | 20.6 µM [falling, single point] | 0.535
c1ccc2c(c1)nnn2Cc1nnc2sc(-c3ccc4c(c3)OCCO4)nn12 | 0.651 µM [rising, single point] | – | 104
Cc1nc(-c2cccs2)ccc1C(=O)O | 0.103 µM [falling, full curve, poor fit] | – | –
Nc1nc(N2CCN(c3ccccc3)CC2)n[nH]1 | 29.1 µM [falling, single point] | 29.1 µM [falling, single point] | -42.8
CC1CCCN(CCCNC(=O)c2cc3c(s2)-c2ccccc2OC3)C1 (stereo unspecified) | – | 6.51 µM [rising, single point] | -27.7
C=CCc1c(C)nc(SCCC)[nH]c1=O | – | 6.51 µM [falling, single point] | -1.41
O=C(Nc1ccc(Cl)cn1)c1ccc([N+](=O)[O-])o1 | 18.4 µM [falling, single point] | 16.4 µM [falling, single point] | -58.6
COc1ccc(-c2cc(C(F)(F)F)nc(S(C)(=O)=O)n2)cc1 | 0.00461 µM [falling, full curve, poor fit] | 18.4 µM [falling, partial curve, poor fit] | -36.4
OCCNc1nc(-c2cccnc2)nc2ccccc12 | – | 1.46 µM [rising, partial curve] | -22.9
CC1=Nn2c(nnc2-c2ccc(F)cc2)SC1 | 29.1 µM [rising, single point] | – | 106
COc1cc(/C=N/NC(=O)c2cccc([N+](=O)[O-])c2)ccc1OCc1ccccc1 | – | 0.0731 µM [falling, full curve, poor fit] | -18
COCCCNC(=O)/C(C#N)=C/c1c(N2CCN(c3ccccc3)CC2)nc2c(C)cccn2c1=O | – | 29.1 µM [falling, single point] | -13.5
CCc1cc2cc(C)cc(C)c2nc1Cl | 4.61 µM [rising, partial curve, poor fit] | 0.0651 µM [rising, full curve, poor fit] | 10.4
CCN(C(=O)c1cc([N+](=O)[O-])ccc1NCc1cccnc1)c1ccccc1 | 0.731 µM [rising, single point] | – | 10.3
Cc1cccc(/C=N/NC(=O)C(C)Nc2cccc3ccccc23)n1 (stereo unspecified) | 1.46 µM [rising, partial curve] | 1.46 µM [rising, partial curve] | –

Structure (SMILES) | AC50 [1] | AC50 [2] | cell number change [%]
COC(=O)C1=CN(Cc2ccc(OC)c(OC)c2)C=C(C(=O)OC)C1c1cccs1 | – | 6.51 µM [rising, single point] | -1.99
COc1ccc(-c2cc(=O)[nH]c(NCc3ccccc3)n2)cc1 | 29.1 µM [falling, single point] | – | -50.7
COc1ccccc1OCCCn1cc(C#N)c2ccccc21 | – | 3.66 µM [rising, single point] | -10.2
COc1ccc(-c2c(-c3cc(OC)c(OC)c(OC)c3)noc2C)cn1 | – | 2.59 µM [rising, single point] | 4.21
O=C(c1cc(-c2ccc(Cl)cc2)on1)N1CCN(c2ccccc2)CC1 | – | – | 14.3
O=C(CCC1CCCN(C(=O)c2cc(C3CC3)[nH]n2)C1)N1CCN(c2ccccn2)CC1 (stereo unspecified) | – | 10.3 µM [falling, partial curve] | -26.5
COc1ccc(C(=O)C[n+]2ccccc2/C=N/O)cc1 | – | – | -5.56
C=CCn1c(CCC(=O)Nc2ccc(C)c(Cl)c2)nnc1SCC(=O)Nc1ccccc1C | 1.84 µM [rising, partial curve] | – | –
CCC1CCCCN1Cc1nc2c(c(=O)n(C)c(=O)n2C)n1Cc1cccc2ccccc12 (stereo unspecified) | – | 6.51 µM [falling, partial curve, poor fit] | 20.8
O=C(CSc1nnc(C2COc3ccccc3O2)o1)N1CCCCC1 (stereo unspecified) | – | 0.00517 µM [falling, full curve, poor fit] | -14.5
CCN(CC(=O)Nc1c(F)cccc1F)C(=O)CCCc1cccs1 | – | – | -0.251
N#Cc1ccccc1NC(=O)CNc1ccccc1N1CCCCC1 | 2.31 µM [rising, partial curve, poor fit] | 4.61 µM [rising, single point] | 12.9
Brc1ccc(-c2nnc(-c3ccc4c(c3)OCO4)o2)o1 | – | 0.651 µM [falling, full curve] | -21.2
CCOC(CNC(=O)CN1C(=O)COc2ccc(S(=O)(=O)N3CCOCC3)cc21)OCC | 9.2 µM [falling, partial curve] | – | -56.4
COc1ccc(-c2nc(CN3CCC(C(=O)N4CCOCC4)CC3)c(C)o2)cc1C | 32.6 µM [falling, single point] | – | -35.6
O=C(CCC(=O)c1cccs1)NNC(=O)c1ccccc1Cl | – | 29.1 µM [rising, single point] | 23.8
CN=C1S/C(=C\c2c(OC)cc(OC)cc2OC)C(=O)N1C | – | 0.411 µM [falling, partial curve] | –
CSc1n[nH]c(NC(C)=O)n1 | – | 0.00517 µM [falling, full curve, poor fit] | 3.97
O=C(Cn1cncn1)N/N=C/c1ccccc1Cl | – | 0.731 µM [rising, full curve, poor fit] | 27.5
CCOC(=O)c1sc(NC(=O)CCCCCN2C(=O)c3cccc4cccc(c34)C2=O)nc1C | 0.461 µM [falling, full curve, poor fit] | – | -29.9
CCOC(=O)C1CCN(CC(O)COc2ccc(C(C)(C)C)cc2)CC1 (stereo unspecified) | – | 32.6 µM [falling, single point] | -26.9

Structure (SMILES) | AC50 [1] | AC50 [2] | cell number change [%]
O=[N+]([O-])c1cccnc1N1CCN(Cc2ccc3c(c2)OCO3)CC1 | – | 29.1 µM [rising, partial curve, poor fit] | –
S=C(c1ccc(N2CCCC2)c(Br)c1)N1CCCCC1 | – | 6.51 µM [falling, single point] | 6.21
COc1ccc(C2=C(SC)CC2=NC(C)(C)C)cc1 | 2.31 µM [rising, single point] | 6.51 µM [rising, single point] | 3.6
O=C(O)COCC(=O)Nc1ccc(OCCc2ccccc2)cc1 | – | 29.1 µM [rising, single point] | -5.25
COc1ccc(Cl)cc1N1Cc2ccccc2C1 | 16.4 µM [rising, partial curve] | 18.4 µM [rising, partial curve] | 61.5
O=C(C1=C[C@@H](c2ccc3c(c2)OCO3)C[C@@H](OCc2ccc(CO)cc2)O1)N1CCOCC1 | – | 2.06 µM [rising, partial curve] | 9.78
CS(=O)(=O)N1CCCC(C(=O)NCc2ccco2)C1 (stereo unspecified) | – | 16.4 µM [falling, single point] | 0.309
Cc1ccc2nsnc2c1S(=O)(=O)N1CCN(CCc2ccccc2)CC1 | – | – | -1.62
Cc1cc(C)n2nc(C(=O)OCC(=O)c3c[nH]c4ccccc34)nc2n1 | – | – | -0.198
NC(=O)CN1C(=O)C(=O)N(Cc2ccc(F)cc2)C1=O | 13 µM [rising, partial curve, poor fit] | 8.2 µM [rising, partial curve] | 45.8
Cc1onc(-c2c(Cl)cccc2Cl)c1C(=O)Nc1nccs1 | – | – | 20.2
CCNC(=O)OCc1cn(-c2ccccc2)nn1 | – | 3.66 µM [rising, full curve] | 53.6
CCOc1ccc(C2c3c(oc4cc(C)c(C)cc4c3=O)C(=O)N2CCCN2CCOCC2)cc1 (stereo unspecified) | – | 1.16 µM [rising, full curve, poor fit] | 10.1
C[C@@H](C(=O)Nc1ccc2c(c1)OCCO2)n1nnc2ccccc2c1=O | – | 6.51 µM [rising, single point] | -18.7
Cc1cc(NC(=O)NCc2ccccc2)c(=O)n(Cc2ccc(F)cc2)c1 | – | – | 10.8
O=C(O)C(Cc1ccc(Cl)cc1)Sc1nc2ccccc2[nH]1 (stereo unspecified) | 18.4 µM [rising, partial curve, poor fit] | – | 47.7
O=C(CN1C(=O)NC2(CCc3ccccc32)C1=O)Nc1cc(C(F)(F)F)ccc1N1CCOCC1 (stereo unspecified) | – | – | -14.4
Cc1ccc(-c2n[nH]c3c2C(c2cccc(O)c2)N(c2ccc(C(=O)O)cc2)C3=O)cc1 (stereo unspecified) | – | 29.1 µM [rising, single point] | 26.2
COC(=O)c1cc(C(=O)OCC(=O)NC(=O)NCc2ccccc2)cc([N+](=O)[O-])c1 | – | 4.11 µM [rising, single point] | 15.2

Exported with each value named: 3 of the compounds above
Cc1onc(-c2c(Cl)cccc2Cl)c1C(=O)Nc1nccs1
  cell number change [%]: 20.2
CCNC(=O)OCc1cn(-c2ccccc2)nn1
  AC50 [2]: 3.66 µM [rising, full curve]; cell number change [%]: 53.6
CCOc1ccc(C2c3c(oc4cc(C)c(C)cc4c3=O)C(=O)N2CCCN2CCOCC2)cc1 (stereo unspecified)
  AC50 [2]: 1.16 µM [rising, full curve, poor fit]; cell number change [%]: 10.1
